These are yes or no findings as the source states them, for the method shown. Where a sequence is shown, tags or fusion partners need not be part of it.

This experiment has as its target Peptidyl-prolyl cis/trans-isomerase Rrd1 from Saccharomyces cerevisiae (S. cerevisiae) (UniProt P40454). Description: SEC; AKTA FPLC, Superdex 200 10/300 GL, 20 mM Tris pH 8.0, 150 mM NaCl, room temperature, flow 0.4 ml/min, detection at 280 nm; column calibrated with standard molecular weight markers; eluted at 15.4 ml, around 45 kDa; both purified. A general note: In gel filtration, larger molecules generally elute earlier.

B1: Peptidyl-prolyl cis/trans-isomerase Rrd1 from Saccharomyces cerevisiae (enzyme, UniProt P40454 1-393)
chain: MSLDRVDWPHATFSTPVKRIFDTQTTLDFQSSLAIHRIKYHLHKYTTLISHCSDPDPHATASSIAMVNGLMGVLDKLAHLIDETPPLPGPRRYGNLACREWHHKLDERLPQWLQEMLPSEYHEVVPELQYYLGNSFGSSTRLDYGTGHELSFMATVAALDMLGMFPHMRGADVFLLFNKYYTIMRRLILTYTLEPAGSHGVWGLDDHFHLVYILGSSQWQLLDAQAPLQPREILDKSLVREYKDTNFYCQGINFINEVKMGPFEEHSPILYDIAVTVPRWSKVCKGLLKMYSVEVLKKFPVVQHFWFGTGFFPWVNIQNGTDLPVFEEKEEESIEQANAGSPGREQTSTRFPTSTSMPPPGVPPSGNNINYLLSHQNQSHRNQTSFSRDRLRR
Consider B1, for which the binding entry is given as “no binding”.

(Values after PMC10263354.)
